{"source": "patent US10344077", "assay_in_all_cases": "AtheNA", "key": {"SSA": {"biological_target": "SSA"}, "RNP (ribonucleoprotein)": {"biological_target": "RNP (ribonucleoprotein)"}, "Sm (Smith antigen)": {"biological_target": "Sm (Smith antigen)"}}, "note": "Results are given in words; binding and its absence hold for the method and conditions named.", "data": [{"binder": "DH542 (antibody, V domains shown) VH: QVQLVQSGAQMKNPGASVKVSCAPSGYTFTDFYIHWLRQAPGQGLQWMGWMNPQTGRTNTARNFQGRVTMTRDTSIGTAYMELRSLTSDDTAIYYCTTGGWISLYYDSSYYPNFDHWGQGTLLTVSS VL: TSLLTQPASVSGSPGQSITISCTGTKYDVGSHDLVSWYQQYPGKVPKYMIYEVNKRPSGVSNRFSGSKSGNTASLTISGLRAEDEADYYCCSFGGSATVVCGGGTKVTVL", "values": [{"measurement": "binding", "setting": "SSA", "result": "no binding (tested: Readings <100 are considered negative)"}, {"measurement": "binding", "setting": "RNP (ribonucleoprotein)", "result": "no binding (tested: Readings <100 are considered negative)"}, {"measurement": "binding", "setting": "Sm (Smith antigen)", "result": "no binding (tested: Readings <100 are considered negative)"}]}, {"binder": "CH557 (antibody, V domains shown) VH: QVRLAQYGGGVKRLGATMTLSCVASGYTFNDYYIHWVRQAPGQGFELLGYIDPANGRPDYAGALRERLSFYRDKSMETLYMDLRSLRYDDTAMYYCVRNVGTAGSLLHYDHWGSGSPVIVSS VL: EIVLTQSPATLSASPGERVTLTCRASRSVRNNVAWYQHKGGQSPRLLIYDASTRAAGVPARFSGSASGTEFTLAISNLESEDFTVYFCLQYNNWWTFGQGTRVDIK", "values": [{"measurement": "binding", "setting": "SSA", "result": "no binding (tested: 6.25 ug/ml to 50 ug/ml)"}, {"measurement": "binding", "setting": "RNP (ribonucleoprotein)", "result": "no binding (tested: 6.25 ug/ml to 50 ug/ml)"}, {"measurement": "binding", "setting": "Sm (Smith antigen)", "result": "no binding (tested: 6.25 ug/ml to 50 ug/ml)"}]}]}
